These results are taken from PMC7496687.

Sequences of proteins named here, by UniProt entry; tags and fusion partners are left off.
UniProt P70604: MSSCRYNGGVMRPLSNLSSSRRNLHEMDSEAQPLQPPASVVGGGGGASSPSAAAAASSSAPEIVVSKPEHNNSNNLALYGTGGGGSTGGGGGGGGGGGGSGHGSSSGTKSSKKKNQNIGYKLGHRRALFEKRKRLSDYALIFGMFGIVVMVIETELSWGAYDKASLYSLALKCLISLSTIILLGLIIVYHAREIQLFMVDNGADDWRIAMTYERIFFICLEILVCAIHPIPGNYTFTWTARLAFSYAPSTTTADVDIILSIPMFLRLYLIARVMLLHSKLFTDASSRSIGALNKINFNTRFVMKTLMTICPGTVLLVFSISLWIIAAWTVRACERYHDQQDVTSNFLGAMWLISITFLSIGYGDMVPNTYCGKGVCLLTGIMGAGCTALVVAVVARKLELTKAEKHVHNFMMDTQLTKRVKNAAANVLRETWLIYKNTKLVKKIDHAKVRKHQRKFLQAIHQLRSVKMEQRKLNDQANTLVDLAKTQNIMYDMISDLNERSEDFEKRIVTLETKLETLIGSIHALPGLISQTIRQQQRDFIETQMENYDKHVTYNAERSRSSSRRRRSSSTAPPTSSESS
UniProt P22002: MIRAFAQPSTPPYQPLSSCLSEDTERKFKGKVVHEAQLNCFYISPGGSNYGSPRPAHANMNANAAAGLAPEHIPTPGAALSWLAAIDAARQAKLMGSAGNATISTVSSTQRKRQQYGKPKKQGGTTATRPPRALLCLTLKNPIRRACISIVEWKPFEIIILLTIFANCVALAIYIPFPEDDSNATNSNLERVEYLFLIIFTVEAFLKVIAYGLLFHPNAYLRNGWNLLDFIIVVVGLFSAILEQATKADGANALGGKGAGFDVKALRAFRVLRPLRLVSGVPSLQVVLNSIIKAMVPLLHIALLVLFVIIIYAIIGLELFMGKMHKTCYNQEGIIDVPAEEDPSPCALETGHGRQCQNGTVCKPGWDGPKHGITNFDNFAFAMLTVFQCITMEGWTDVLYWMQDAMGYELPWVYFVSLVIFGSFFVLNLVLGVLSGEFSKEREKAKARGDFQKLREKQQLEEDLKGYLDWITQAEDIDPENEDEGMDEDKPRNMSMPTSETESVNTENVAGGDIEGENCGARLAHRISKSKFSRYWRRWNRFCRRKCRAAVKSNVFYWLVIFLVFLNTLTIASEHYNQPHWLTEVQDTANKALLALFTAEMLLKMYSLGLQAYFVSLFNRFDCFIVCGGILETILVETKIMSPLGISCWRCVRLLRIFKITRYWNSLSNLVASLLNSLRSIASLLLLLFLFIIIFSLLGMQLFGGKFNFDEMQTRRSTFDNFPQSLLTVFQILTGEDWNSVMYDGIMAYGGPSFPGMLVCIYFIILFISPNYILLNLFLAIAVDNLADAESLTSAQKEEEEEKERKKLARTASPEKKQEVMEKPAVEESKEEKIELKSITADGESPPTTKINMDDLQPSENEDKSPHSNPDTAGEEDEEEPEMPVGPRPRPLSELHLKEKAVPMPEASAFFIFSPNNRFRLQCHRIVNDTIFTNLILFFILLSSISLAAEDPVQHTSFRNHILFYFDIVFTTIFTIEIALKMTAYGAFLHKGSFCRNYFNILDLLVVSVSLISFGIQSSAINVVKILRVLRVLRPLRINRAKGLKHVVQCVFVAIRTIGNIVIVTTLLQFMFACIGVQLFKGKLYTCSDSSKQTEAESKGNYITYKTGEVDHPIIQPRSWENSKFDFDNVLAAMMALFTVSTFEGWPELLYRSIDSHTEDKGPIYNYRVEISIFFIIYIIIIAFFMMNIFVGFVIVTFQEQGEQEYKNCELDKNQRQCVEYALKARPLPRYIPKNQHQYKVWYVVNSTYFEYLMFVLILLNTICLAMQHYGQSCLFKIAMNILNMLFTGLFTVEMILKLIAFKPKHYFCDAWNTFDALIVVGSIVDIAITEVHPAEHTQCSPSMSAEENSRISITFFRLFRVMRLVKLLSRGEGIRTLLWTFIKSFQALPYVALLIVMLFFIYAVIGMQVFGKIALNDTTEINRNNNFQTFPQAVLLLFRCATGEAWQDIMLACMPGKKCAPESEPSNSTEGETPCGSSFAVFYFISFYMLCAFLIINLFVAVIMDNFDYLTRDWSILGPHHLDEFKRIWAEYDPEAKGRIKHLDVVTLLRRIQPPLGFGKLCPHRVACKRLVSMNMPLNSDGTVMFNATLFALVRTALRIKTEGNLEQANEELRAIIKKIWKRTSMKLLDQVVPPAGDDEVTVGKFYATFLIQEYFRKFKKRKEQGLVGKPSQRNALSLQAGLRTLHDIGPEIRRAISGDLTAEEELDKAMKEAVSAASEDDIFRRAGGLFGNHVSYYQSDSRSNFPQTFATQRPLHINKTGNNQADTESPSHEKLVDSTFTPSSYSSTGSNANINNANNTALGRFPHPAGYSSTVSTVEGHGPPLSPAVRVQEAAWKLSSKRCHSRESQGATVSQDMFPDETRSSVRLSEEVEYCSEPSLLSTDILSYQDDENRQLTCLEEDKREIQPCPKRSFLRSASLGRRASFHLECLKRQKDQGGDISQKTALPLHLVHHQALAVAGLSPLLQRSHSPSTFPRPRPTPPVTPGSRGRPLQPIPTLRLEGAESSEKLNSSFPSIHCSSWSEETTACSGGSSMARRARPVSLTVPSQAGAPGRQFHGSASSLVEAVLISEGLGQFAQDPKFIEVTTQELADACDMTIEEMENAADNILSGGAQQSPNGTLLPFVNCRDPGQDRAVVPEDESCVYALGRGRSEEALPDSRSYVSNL

No constants are given. Whether binding was seen depends on the method and setting. Some entries that bind do so weakly or less than the wild type.

The assay addresses small-conductance Ca2+-activated K+ channel SK2 (rat (endogenous in rat ventricular myocytes)) (UniProt P70604). The experiment in a line: native gel or EMSA; blue native PAGE (NativePAGE 4-16% Bis-Tris) of the solubilised membrane fraction of freshly isolated Sham and TAB rat ventricular myocytes; blots probed for SK2, Cav1.2α1c and Na+/K+-ATPase (loading control).

Turning to “Cav1.2α1c L-type Ca2+ channel (LTCC) subunit (from UniProt P22002 1-2169)”, the binding entry is reported as “binds”.
